Results from patent publication US20240024503A1 (Stanford University, published 2024).

T1: human/mouse B7-H3 (form used for the Kd values not stated) (human, UniProt Q5ZPR3 29-466, limits assumed)
T1 construct: also called human B7-H3
T1 sequence: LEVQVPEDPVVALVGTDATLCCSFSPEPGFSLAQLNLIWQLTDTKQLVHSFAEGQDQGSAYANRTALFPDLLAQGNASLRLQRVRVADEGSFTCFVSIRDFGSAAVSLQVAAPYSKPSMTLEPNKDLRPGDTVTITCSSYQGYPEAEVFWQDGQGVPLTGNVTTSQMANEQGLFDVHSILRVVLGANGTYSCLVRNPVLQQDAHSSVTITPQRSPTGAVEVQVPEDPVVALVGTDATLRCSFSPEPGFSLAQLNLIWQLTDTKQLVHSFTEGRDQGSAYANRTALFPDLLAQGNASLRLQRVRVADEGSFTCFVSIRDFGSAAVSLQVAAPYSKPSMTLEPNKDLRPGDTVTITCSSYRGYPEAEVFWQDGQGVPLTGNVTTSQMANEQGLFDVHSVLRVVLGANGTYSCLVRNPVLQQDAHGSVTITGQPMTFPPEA


Molecular target: T1, human/mouse B7-H3 (form used for the Kd …)
Assay: method not stated; binding affinities to human/mouse B7-H3

| Binder | Kd [nM] |
| --- | --- |
| ABYAC12 affibody with N-terminal His-Tag, enterokinase cleavage site and C-terminal pentaglycine-cysteine (designed binder, biotinylated with NHS-PEG4-Biotin (amine-reactive, 1:1.6 molar ratio ABY:biotin) for the flow cytometry assays, MALDI-TOF 8.266 kDa; Expressed in E. coli from pET-22b; also called ABYACI2; AC12cys) HHHHHHDDDDKAEAKYAKEKIAALSEIIWLPNLTHGQIMAFIAALNDDPSQSSELLSEAKKLNDSQAPKGGGGGC | 0.9 |
| ABYAC2 affibody with N-terminal His-Tag, enterokinase cleavage site and C-terminal pentaglycine-cysteine (designed binder, biotinylated with NHS-PEG4-Biotin (amine-reactive, 1:1.6 molar ratio ABY:biotin) for the flow cytometry assays, Expressed in E. coli from pET-22b (NheI/BamHI); also called biotinylated-AC2; parental AC2) HHHHHHDDDDKAEAKYAKEKIFAVGEIYWLPNLTHGQIMAFIAALNDDPSQSSELLSEAKKLNDSQAPKGGGGGC | 310 |
